# Values quoted from earlier work in patent US20030050470A1, “Biomarkers and targets for diagnosis, prognosis and management of prostate disease, bladder and breast cancer” (UroCor, Inc., priority 1996, published 2003).
# At least one structure is not confirmed: it was looked up by name or label, or the drawing left a doubt.
# What was measured:
# cyclin A mRNA = conditions: Dumont et al., 1994; cited from earlier work
# YAC-1 T cell lymphoma = YAC-1 T cell lymphoma (Dumont et al., 1994); cited from earlier work
smiles,measurement,setting,value
CO[C@H]1C[C@@H]2CC[C@@H](C)[C@@](O)(O2)C(=O)C(=O)N2CCCC[C@H]2C(=O)O[C@H]([C@H](C)C[C@@H]2CC[C@@H](O)[C@H](OC)C2)CC(=O)[C@H](C)/C=C(\C)[C@@H](O)[C@@H](OC)C(=O)[C@H](C)C[C@H](C)/C=C/C=C/C=C/1C [Rapamycin],cyclin A mRNA production,cyclin A mRNA,inhibits cyclin A mRNA production
same,cell proliferation,YAC-1 T cell lymphoma,inhibits cell proliferation
